Paper PMC7213743, “ArdC, a ssDNA-binding protein with a metalloprotease domain, overpasses the recipient hsdRMS restriction system broadening conjugation host range”
The comparison behind a weaker result is the experiment's own reference, which may not be listed here. Tags and fusion partners may be left off the protein sequences shown.

Molecular target: T1, ArdC (UniProt Q6I6B2)
T1 sequence (looked up): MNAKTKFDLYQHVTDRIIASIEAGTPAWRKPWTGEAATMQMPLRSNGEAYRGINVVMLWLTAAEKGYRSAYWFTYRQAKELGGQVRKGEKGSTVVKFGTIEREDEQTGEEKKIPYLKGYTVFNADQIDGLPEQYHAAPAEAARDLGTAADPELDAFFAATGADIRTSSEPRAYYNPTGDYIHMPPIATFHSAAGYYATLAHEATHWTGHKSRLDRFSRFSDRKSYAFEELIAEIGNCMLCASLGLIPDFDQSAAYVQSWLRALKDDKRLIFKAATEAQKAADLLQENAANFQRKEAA
Test: EMSA
Settings: 0-1 uM ArdC, 50 nM DNA, EMSA: 50 mM NaCl, 25 mM Tris-HCl pH 7.5, 0.5 mM EDTA, room temperature 30 min, 10% native PAGE in cold 1x TBE, recombinant protein, residues 22-318, label: 6FAM (5' of strand 1)

Sequence: TACGCTCTTGGGCGCGCTGAATATGAGGTCAAGGCCGATGCGCTC (double strand) [Fluor-T87I2 + T87I1 (45 bp duplex)]
- binding result: binds more weakly
